Data on three molecules can be found in publication PMC7772139.

These are yes or no findings as the source states them, for the method shown.

The chains are these.
B1: mTERF9 (protein, UniProt Q9FM80 1-496)
chain: MAGFSLYCFKNPRILFTLPSESPLFVLGSDKCSPATRRPSRKTRGFVVTYAHSNPKIINPKKKSRYGQTLSPYDSDEDDDDDDDDDDDDWLLNDDFAEVTEYEKKKPKSHKQTIAKKSVKKGIVKPEESETDEDDLDLGISPNATSEKKKESWRLDGRGKMSSRKYVEKLYPRLAEEIDIDPKCVPLLDYLSTFGLKESHFVQMYERHMPSLQINVFSAQERLDYLLSVGVKHRDIKRMLLRQPQILQYTVENNLKAHISFLMGLGIPNSKIGQIVAATPSLFSYSVENSLRPTIRYLIEEVGIKETDVGKVVQLSPQILVQRLDITWNTRYMFLSKELGAPRDSVVKMVKKHPQLLHYSIDDGFLPRINFLRSIGMCNSDILKVLTSLTQVLSLSLEDNLKPKYMYLVNELNNEVHILTKYPMYLSLSLDQRIRPRHRFLVELKKVRKGPFPLSSLVPNDESFCQQWAGTSVDTYLAFRQRLLLKEFANKYDKRG
B2: rpoC1 (protein, UniProt P56763 1-680)
chain: MIDRYKHQQLRIGLVSPQQISAWATKIIPNGEIVGEVTKPYTFHYKTNKPEKDGLFCERIFGPIKSGICACGNYRVIGDEKEDPKFCEQCGVEFVDSRIRRYQMGYIKLTCPVTHVWYLKRLPSYIANLLDKPLKELEGLVYCDFSFARPITKKPTFLRLRGSFEYEIQSWKYSIPLFFTTQGFDIFRNREISTGAGAIREQLADLDLRIIIENSLVEWKQLGEEGPTGNEWEDRKIVRRKDFLVRRMELAKHFIRTNIEPEWMVLCLLPVLPPELRPIIQIEGGKLMSSDINELYRRVIYRNNTLTDLLTTSRSTPGELVMCQEKLVQEAVDTLLDNGIRGQPMRDGHNKVYKSFSDVIEGKEGRFRETLLGKRVDYSGRSVIVVGPSLSLHRCGLPREIAIELFQTFVIRGLIRQHLASNIGVAKSQIREKKPIVWEILQEVMQGHPVLLNRAPTLHRLGIQSFQPILVEGRTICLHPLVCKGFNADFDGDQMAVHVPLSLEAQAEARLLMFSHMNLLSPAIGDPISVPTQDMLIGLYVLTSGTRRGICANRYNPCNRKNYQNERIYETNYKYTKEPFFCNSYDAIGAYRQKKINLDSPLWLRWQLDQRVIASREVPIEVHYESFGNYHEIYAHYLIVRSVKKENFCIYIRTTVGHISFYREIEEAIQGFSQACSYDT
B3: mTERF8/PTAC15 (protein, UniProt Q9FK23 1-500)
chain: MVILSLVSCSFSVFSPPISLRLHLPPVTSLCSHGTFPASSTFRSQLQPLLISCLNHREPALTFRCSCLSSPIESGSQIESLFSLFRDIGFIEEETEMILAKNPDIKSTSLDKIGARVASLQSLKINGFPLQGLIAKCPNLLTSEEFDLVISFLVDELEGRLDPELVERLLSVVDTSILLSFNQKVRLLLLHGIPKEKISHVLNKVYLNKLLYQKSVEDIERLISFLEPFGGIGIIARRPVILNSDLDSQLIPRVDFIRNLSGEDDFATGTVLRRLPAILSYSVEHMNGQVEFLKSFAGLTSEQVFKIVHVFPNVISTSKERKLRPRIEFLKECGFDSPGMFKFLSKAPLILALSENNLSHKLGFLVKIGYKHRTKELAFAMGAVTRTSSDNMQRVIGLYLSYGLSFEDILAMSTKHPQVLQYNYTSLEEKLEYLIEYMGREVEELLAFPAFLGYKLDSRIKHRYEEKLKSRGENMSLNKLLTVSAERFSKAADNIEMICL

The test deals with Seedling Lethal 1 (SL1/mTERF3) (Arabidopsis thaliana). Briefly: two-hybrid; SL1 as bait (GAL4 DNA binding domain, pGBKT7), PEP complex proteins and chloroplast mTERF proteins as prey (GAL4 activation domain, pGADT7); yeast strain Y2H Gold; growth on SD/-Trp-Leu, SD/-Trp-Leu-His and SD/-Trp-Leu-His-Ade.
In the case of B1, the binding result is “no binding”.
Next, B2: “no binding”; B3: “no binding”.
